Experimental data as given in PubChem BioAssay AID1439 (NMMLSC, 2008).
Screen size: about 220,000 compounds; about 770 (0.35%) were called active. The inconclusive results got no clear call from the source; some entries with a clear call stand among them for comparison. Rule as the data show it: active = binding response below about 49% or above about 150%; inconclusive = no clear call, values can overlap the other calls; inactive = in between.

Chains of the proteins cited; added tags and fusions are not shown.
UniProt P09471, whole entry, looked up: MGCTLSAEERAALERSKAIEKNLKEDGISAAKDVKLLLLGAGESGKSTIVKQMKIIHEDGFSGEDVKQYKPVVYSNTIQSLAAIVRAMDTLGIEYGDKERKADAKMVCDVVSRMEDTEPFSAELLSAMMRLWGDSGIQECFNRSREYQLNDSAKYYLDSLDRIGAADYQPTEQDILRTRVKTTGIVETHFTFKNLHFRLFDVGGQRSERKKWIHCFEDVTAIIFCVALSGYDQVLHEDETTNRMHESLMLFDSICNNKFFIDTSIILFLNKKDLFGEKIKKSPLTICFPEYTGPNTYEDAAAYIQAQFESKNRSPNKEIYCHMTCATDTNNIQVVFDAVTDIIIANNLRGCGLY

These compounds were tested against Guanine nucleotide-binding protein G(o) subunit alpha (Homo sapiens) (UniProt P09471) (assay: RGS7-Galphao binding modulators, primary screen, biochemical, multiplexed bead flow cytometry (AID 1439;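 also: fluorescent Galphao held in activated GDP-AlF4 state binding bead-coupled RGS7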)). Details: at 10 µM, actives lie on both sides.

Row | Compound | binding response (% of control)
1 | CCOc1ccc(OCC)c(NC(=O)c2ccc(CNc3c(N4CCCC4)c(=O)c3=O)cc2)c1 | inconclusive: 105%
2 | COc1ccc(C2CC(c3ccccc3)=NN2S(=O)(=O)c2ccccc2)cc1 (stereo not drawn) | inconclusive: 142%
3 | CSCCC1NC(=O)N(CC(=O)Nc2ccc(-c3ccccc3)cc2)C1=O (stereo not drawn) | inconclusive: 35.2%
4 | Cc1ccc(-n2nnc3c(=O)n(Cc4ccccn4)cnc32)cc1C | inconclusive: 103%
5 | Cc1ccc2oc(C(=O)NCc3ccc4c(c3)OCO4)c(C)c2c1 | inactive: 99.8%
6 | O=C(/C=C/c1ccc2c(c1)OCO2)Nc1nncs1 | inconclusive: 59.5%
7 | O=C(Nc1ccc(-c2csc(Nc3ccc(Cl)cc3)n2)cc1)c1cc([N+](=O)[O-])cc(C(F)(F)F)c1 | inconclusive: 90.3%
8 | Cc1cccc(-n2cc(-c3ccccc3)c3c(=O)[nH]cnc32)c1 | inactive: 89.1%
9 | CCN1C(=O)N(C)[C@@H](c2ccccc2)C(C(=O)OC)=C1C | inconclusive: 101%
10 | COCc1cc(=O)[nH]c(-c2csc(C)n2)n1 | inconclusive: 87.3%
11 | O=C(CCCc1c[nH]c2ccccc12)Nc1ccc(S(=O)(=O)Nc2ncccn2)cc1 | inconclusive: -52.6%
12 | O=C(O)CS(=O)CC(=O)Nc1cccc(C(F)(F)F)c1 (stereo not drawn) | inactive: 96.2%
13 | CC(NCc1ccc(F)cc1)C(=O)Nc1cc(S(=O)(=O)N2CCCCC2)ccc1Cl (stereo not drawn) | inconclusive: 107%
14 | CCNC(=O)c1ccccc1NC(=O)c1cccc(S(=O)(=O)N2CCOCC2)c1 | active: -3.56%
15 | CC(C)c1nnc(NC(=O)CCC(=O)Nc2ccccc2)s1 | inconclusive: 116%
16 | C=CCNC(=S)Nc1sc2c(c1C(N)=O)CCCC2 | inconclusive: 86.2%
17 | COC(C[C@@H](O)[C@H](C)[C@@H](O)COCc1ccccc1)OC | inconclusive: 88.1%
18 | Cn1c(=O)n(C)c2cc(/C=N/NC(=O)c3cc4cc(Br)ccc4o3)ccc21 | inconclusive: 66.1%
19 | CC(C)c1nc(Cl)c(C#N)c2c1CCCC2 | inactive: 100%
20 | CCOC(=O)c1cnc(-n2nc(C)cc2C)nc1NC1CCCC1 | inconclusive: 45.3%

Row | Compound | binding response (% of control)
21 | CCOC(=O)CCC(NC(=O)CCCCCCCC(=O)NC(CCC(=O)OCC)C(=O)OCC)C(=O)OCC (stereo not drawn) | inactive: 102%
22 | Cc1c(Cl)cccc1S(=O)(=O)Nc1ccnn1C | inconclusive: 81.6%
23 | CCCCN1C(=O)N(c2nnc(C(C)(C)C)s2)C(O)C1c1ccc(C)cc1 (stereo not drawn) | inconclusive: 255%
24 | COc1cc2c(c(OC)c1OC)-c1c(cc3c(c1OC)OCO3)C1OC2[C@@H](C)[C@H]1C (stereo partly drawn) | inconclusive: 134%
25 | COc1cc(C)nc(Oc2ccc(OCc3ccccc3)nn2)n1 | inactive: 99.4%
26 | Cc1ccc[n+](-c2nc([O-])sc2/C=N/Nc2ccc([N+](=O)[O-])cc2)c1 | inconclusive: 90.5%
27 | N#Cc1ccccc1Sc1ccccc1N | active: 13.8%
28 | Cc1ccc(C(=O)O/N=C(\N)c2ccccc2)c(Cl)c1 | inconclusive: 51.5%
29 | CCOC(=O)/C(C#N)=C/C1=C(N2CCOCC2)CC(C)(C)OC1 | inconclusive: 103%
30 | C=C1SC(Nc2c(C)cc(C)cc2C)=NC12CCCCC2 | inconclusive: 343%
31 | CN1CCN(c2nc3ccccn3c(=O)c2/C=C(\C#N)S(=O)(=O)c2ccc(Cl)cc2)CC1 | inconclusive: 87.2%
32 | C/C(=N\O)c1cc(Cl)cc(Cl)c1O | inconclusive: 130%
33 | Cc1cc(C)n(-c2nc(NCC(C)O)c3c4c(sc3n2)CCCC4)n1 (stereo not drawn) | inactive: 99.6%
34 | C=C(C)CNC(=S)NNC(=O)c1ccco1 | inactive: 102%
35 | Cc1cccc(Cn2nc(C(C)(C)C)cc2C(=O)Nc2ccc(F)cc2)c1 | inconclusive: 92.1%
36 | O=C1CCCc2c1nc(-c1ccc(F)cc1)n2O | inconclusive: 86.3%
37 | NC1=NCC(O)=C1c1nc2ccccc2[nH]1 | inconclusive: 77%
38 | CCCOC(=O)c1ccc(-c2c(C)noc2-c2ccc(OC)cc2O)o1 | inactive: 101%
39 | COc1cc(NC(=O)COC(C)=O)c(C)cc1[N+](=O)[O-] | inactive: 103%
40 | N#C/C(=C\c1ccc2c(c1)OCO2)C(N)=S | inconclusive: 82.1%

Among those listed so far, these have a thiophene ring, fused or not:
Row | Compound | binding response (% of control)
16 | C=CCNC(=S)Nc1sc2c(c1C(N)=O)CCCC2 | inconclusive: 86.2%
33 | Cc1cc(C)n(-c2nc(NCC(C)O)c3c4c(sc3n2)CCCC4)n1 (stereo not drawn) | inactive: 99.6%

More entries follow.

Row | Compound | binding response (% of control)
41 | Cc1sc2nc(C(C)Sc3n[nH]c(N)n3)[nH]c(=O)c2c1C (stereo not drawn) | inconclusive: 95.6%
42 | O=c1nc(Nc2cccc(Cl)c2)oc2cc(Cl)oc(=O)c12 | inconclusive: 46.8%
43 | CCc1ccc(CN2CCCC(CCC(=O)N3CCN(c4ccccn4)CC3)C2)o1 (stereo not drawn) | inconclusive: 69.2%
44 | COc1ccc(NC(=O)c2cc(=O)[nH]c(=O)[nH]2)cc1S(=O)(=O)Nc1ccccc1Cl | inconclusive: 108%
45 | COc1ccc(NC(=O)CN(C)CC(=O)Nc2cccc(C(F)(F)F)c2)cc1 | inconclusive: 107%
46 | CN1CCN(C(=O)/C(C#N)=C/c2ccc(OC(F)F)cc2)CC1 | inconclusive: 88.5%
47 | CN1C[C@@H]2C(c3ccc(Cl)nc3)C3(c4cccnc4)CC2(C3)[C@H]1c1ccccc1 (stereo partly drawn) | inconclusive: 89.7%
48 | CCCCOCCCNC(=O)C1CCCCC1 | inactive: 50.9%
49 | O=C(Nc1ccncc1)c1cc(-c2ccccn2)nc2ccccc12 | inconclusive: 96.1%
50 | CCOC(=O)Cn1c(=O)oc2cc(S(=O)(=O)N(C)Cc3ccccc3)ccc21 | inconclusive: 109%
51 | CSc1nc(SCC(=O)O)c2sc3nc(-c4ccccc4)c4c(c3c2n1)CCC4 | inconclusive: 91.3%
52 | O=c1cc(CSc2ccccc2)nc(-c2ccncc2)[nH]1 | inconclusive: 98.9%
53 | Cc1ccc2c(c1)C(c1ccccc1)CC(=O)O2 (stereo not drawn) | inconclusive: 108%
54 | CCN(CC)c1ccc(/C=C2/C(=O)ON=C2C)cc1 | inactive: 86%
55 | Cc1ccc(Sc2c([N+](=O)[O-])c(C)nn2C)cc1 | inconclusive: 95.1%
56 | C=CCN(c1ccccc1OC)S(=O)(=O)c1cccc(C(=O)OCC(=O)c2c[nH]c3ccccc23)c1 | inactive: 99%
57 | COc1ccc(CCNc2c3ccccc3nc3ccccc23)cc1OC | inconclusive: 107%
58 | CC(CN1CCN(C)CC1)OC(=O)c1cccc(Cl)c1 (stereo not drawn) | inconclusive: 45.1%
